PubChem BioAssay AID504774 – Drosophila RNAi Screening Center, 2011

Test: 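Genes required for cells to withstand methyl methanesulphonate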 (primary screen)
System: Drosophila Kc167 cells
Reagents: long dsRNA against Drosophila genes, about 0.25 µg dsRNA per well
Duration: about 6 days: 3 days knock-down, then 3 days with or without MMS
Conditions: methyl methanesulphonate 0.004% (w/v) for 3 days after knock-down
Read-out: 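ATP-dependent luminescence as a measure of live cells in MMS-exposed wells, quantile normalised within each plate, with replicate values also given as a mean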
Reading the numbers: mean viability with MMS: higher = more surviving cells after MMS
In all, the deposit lists about 23,000 reagents; shown is an unselected part of those that have a named target and a result. 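Values are quantile-normalised luminescence on an arbitrary scale; higher means more cells surviving MMS.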 Not all columns of the deposit are shown.

CG31562 (retired record) [DRSC12273] gave mean viability with MMS 3.57e6.
CG31562 (retired record) [DRSC12274] showed mean viability with MMS 3.49e6.
Knock-down of CG32095 [DRSC22615] came out at: mean viability with MMS 3.45e6.
Knock-down of CG15458 [DRSC20529] gave: mean viability with MMS 3.58e6.
CG17207 [DRSC15198] showed mean viability with MMS 3.50e6.
Against Ugt304A1 (UDP-glycosyltransferase family 304 member A1) [DRSC15127], the entry reads mean viability with MMS 3.45e6.
For CG15480 [DRSC02490] the deposit lists mean viability with MMS 3.67e6.
Depletion of CG31663 [DRSC00078] gave: mean viability with MMS 3.57e6.
For CG31663 [DRSC00389] the deposit lists mean viability with MMS 3.73e6.
With knock-down of CG31663 [DRSC00390], the screen gave mean viability with MMS 1.86e6.
After knock-down of CG31663 [DRSC00393], the screen gave mean viability with MMS 3.52e6.
Depletion of CG6511 [DRSC10656] gave: mean viability with MMS 3.52e6.
After knock-down of Atg16 (Autophagy-related 16) [DRSC15052], the record shows mean viability with MMS 3.57e6.
For Atg16 (Autophagy-related 16) [DRSC15300], the values are mean viability with MMS 3.60e6.
For Atg16 (Autophagy-related 16) [DRSC15375], the entry reads mean viability with MMS 3.61e6.
After knock-down of CG12426 [DRSC14516] the results were mean viability with MMS 3.71e6.
Ser6 (Serine protease 6) [DRSC20574] scored mean viability with MMS 3.58e6.
CG10365 [DRSC14234] gave mean viability with MMS 3.76e6.
For Ugt35B1 (UDP-glycosyltransferase family 35 member B1) [DRSC16893], the values are mean viability with MMS 3.48e6.
With knock-down of und (uninitiated) [DRSC03629] the results were mean viability with MMS 3.62e6.
After knock-down of Pex16 (Peroxin 16) [DRSC11750] the results were mean viability with MMS 3.59e6.
Against SkpE (SKP1-related E) [DRSC19431], the values are mean viability with MMS 3.70e6.
Nadk2 (NAD kinase 2, mitochondrial) [DRSC07072] showed mean viability with MMS 3.56e6.
For Pbp95 (PSEA-binding protein 95kD) [DRSC15448], the values are mean viability with MMS 3.47e6.
After knock-down of CG5104 [DRSC11765], the screen gave mean viability with MMS 3.62e6.
After knock-down of Hel89B (Helicase 89B) [DRSC16700], the record shows mean viability with MMS 3.70e6.
After knock-down of Hel89B (Helicase 89B) [DRSC21575], the screen gave mean viability with MMS 3.48e6.
With knock-down of mrj [DRSC22592], the screen gave mean viability with MMS 3.49e6.
nst (nesthocker) [DRSC09755] scored mean viability with MMS 3.48e6.
Against CG30412 [DRSC04564] the deposit lists mean viability with MMS 3.63e6.
Against Naxe (NAD(P)HX epimerase) [DRSC18251], the entry reads mean viability with MMS 3.58e6.
Depletion of S6k (Ribosomal protein S6 kinase) [DRSC11276] came out at: mean viability with MMS 3.53e6.
Against sip1 (septin interacting protein 1) [DRSC03609] the deposit lists mean viability with MMS 3.30e6.
Depletion of sip1 (septin interacting protein 1) [DRSC22648] came out at: mean viability with MMS 3.37e6.
Against ppk23 (pickpocket 23) [DRSC20110] the deposit lists mean viability with MMS 3.45e6.
After knock-down of CG8187 [DRSC07099], the screen gave mean viability with MMS 3.66e6.
After knock-down of Flad2 (Flavin adenine dinucleotide synthetase 2) [DRSC02531], the screen gave mean viability with MMS 3.49e6.
Depletion of Mst87F (Male-specific RNA 87F) [DRSC16747] gave: mean viability with MMS 3.82e6.
Depletion of Nadsyn (NAD synthetase) [DRSC20222] gave: mean viability with MMS 3.60e6.
Against RnpS1 (RNA-binding protein S1) [DRSC15154] the deposit lists mean viability with MMS 3.34e6.
With knock-down of CG42789 [DRSC13793], the screen gave mean viability with MMS 1.78e6.
Against Cpsf6 (Cleavage and polyadenylation specific factor 6) [DRSC10781], the entry reads mean viability with MMS 3.37e6.
CG16721 [DRSC18113] gave mean viability with MMS 3.33e6.
Silencing of Slh (SLY-1 homologous) [DRSC00789] gave: mean viability with MMS 3.55e6.
sei (seizure) [DRSC04713] gave mean viability with MMS 3.55e6.

Copied from the listing (3 entries):
Hel89B (Helicase 89B) [DRSC16700] | mean viability with MMS: 3.70e6
Hel89B (Helicase 89B) [DRSC21575] | mean viability with MMS: 3.48e6
mrj [DRSC22592] | mean viability with MMS: 3.49e6
